Measurements published in US12508315B2 (Hyloris Developments SA, priority 2023, dated 2025).
Structures can show the parent of a compound that is named as a salt. The amount applied is not stated for every result.

Test system: human volunteers
Assay: Palatability of the drug samples using human volunteers (taste scale 1-10, Table 52)
Type: in vivo
Conditions: average of individual volunteers

Structure (SMILES)	Taste scale of samples: Drug in water (Solution A)
CNC(=C[N+](=O)[O-])NCCSCc1ccc(CN(C)C)o1 [Ranitidine, ranitidine hydrochloride]	1
CC(=O)Oc1ccccc1C(=O)O [aspirin, acetylsalicylic acid]	4
O=C(O)COCCN1CCN(C(c2ccccc2)c2ccc(Cl)cc2)CC1 (stereo not shown) [cetirizine hydrochloride]	3
CN(C)CCC(c1ccc(Cl)cc1)c1ccccn1 (stereo not shown) [chlorpheniramine maleate]	4
C[C@@H](NCCCc1cccc(C(F)(F)F)c1)c1cccc2ccccc12 [cinacalcet hydrochloride]	2
O=C(O)c1cn(C2CC2)c2cc(N3CCNCC3)c(F)cc2c1=O [ciprofloxacin]	3
COc1cc2c(c(OC)c1OC)-c1ccc(OC)c(=O)cc1[C@@H](NC(C)=O)CC2 [colchicine]	2
COc1ccc2c(c1)[C@]13CCCC[C@@H]1[C@H](C2)N(C)CC3 [dextromethorphan hydrobromide]	4
CC[C@H]1OC(=O)[C@H](C)[C@@H](O[C@H]2C[C@@](C)(OC)[C@@H](O)[C@H](C)O2)[C@H](C)[C@@H](O[C@@H]2O[C@H](C)C[C@H](N(C)C)[C@H]2O)[C@](C)(O)C[C@@H](C)C(=O)[C@H](C)[C@@H](O)[C@]1(C)O [erythromycin]	3
CC(C)Cc1ccc(C(C)C(=O)O)cc1 (stereo not shown) [ibuprofen]	3
O=C(O)COCCN1CCN([C@H](c2ccccc2)c2ccc(Cl)cc2)CC1 [levocetirizine hydrochloride]	3
CC(=O)Nc1ccc(O)cc1 [paracetamol]	2
C=C[C@H]1C[N@@]2CC[C@H]1C[C@H]2[C@H](O)c1ccnc2ccc(OC)cc12 [quinine]	1
